Source: PMC8082149

Sequences of proteins named here, by UniProt entry; tags and fusion partners are left off.
UniProt Q9Y572: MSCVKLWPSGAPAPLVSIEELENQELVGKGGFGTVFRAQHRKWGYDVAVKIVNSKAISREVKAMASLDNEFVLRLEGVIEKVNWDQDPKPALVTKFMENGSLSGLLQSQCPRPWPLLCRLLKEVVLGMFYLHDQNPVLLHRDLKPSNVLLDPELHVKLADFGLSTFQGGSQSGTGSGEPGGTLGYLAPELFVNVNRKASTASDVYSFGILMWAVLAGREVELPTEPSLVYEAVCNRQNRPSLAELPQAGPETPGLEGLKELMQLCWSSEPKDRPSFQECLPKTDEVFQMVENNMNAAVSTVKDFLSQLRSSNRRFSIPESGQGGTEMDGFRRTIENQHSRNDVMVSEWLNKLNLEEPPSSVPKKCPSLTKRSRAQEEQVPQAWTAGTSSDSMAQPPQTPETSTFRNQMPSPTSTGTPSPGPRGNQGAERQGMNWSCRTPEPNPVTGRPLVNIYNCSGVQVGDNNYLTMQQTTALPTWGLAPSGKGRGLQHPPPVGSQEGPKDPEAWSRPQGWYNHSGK
UniProt Q13158: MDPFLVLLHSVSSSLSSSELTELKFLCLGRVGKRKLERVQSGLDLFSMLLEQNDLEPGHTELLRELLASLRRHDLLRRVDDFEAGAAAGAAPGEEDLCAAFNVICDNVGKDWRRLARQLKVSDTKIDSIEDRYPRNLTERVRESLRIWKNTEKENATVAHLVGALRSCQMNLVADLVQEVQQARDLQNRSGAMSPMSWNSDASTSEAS
UniProt P19474: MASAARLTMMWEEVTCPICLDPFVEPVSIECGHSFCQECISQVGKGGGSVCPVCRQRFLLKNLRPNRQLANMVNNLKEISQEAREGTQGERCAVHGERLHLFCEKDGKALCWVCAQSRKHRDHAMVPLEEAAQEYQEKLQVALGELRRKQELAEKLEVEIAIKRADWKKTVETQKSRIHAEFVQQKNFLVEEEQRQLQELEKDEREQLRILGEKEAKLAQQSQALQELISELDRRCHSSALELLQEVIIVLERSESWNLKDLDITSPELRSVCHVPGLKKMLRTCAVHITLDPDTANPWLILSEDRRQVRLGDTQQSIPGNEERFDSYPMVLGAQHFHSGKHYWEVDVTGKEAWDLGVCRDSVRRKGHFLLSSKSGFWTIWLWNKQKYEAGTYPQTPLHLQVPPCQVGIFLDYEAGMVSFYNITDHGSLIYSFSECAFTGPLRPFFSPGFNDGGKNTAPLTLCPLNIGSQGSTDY
UniProt P08238: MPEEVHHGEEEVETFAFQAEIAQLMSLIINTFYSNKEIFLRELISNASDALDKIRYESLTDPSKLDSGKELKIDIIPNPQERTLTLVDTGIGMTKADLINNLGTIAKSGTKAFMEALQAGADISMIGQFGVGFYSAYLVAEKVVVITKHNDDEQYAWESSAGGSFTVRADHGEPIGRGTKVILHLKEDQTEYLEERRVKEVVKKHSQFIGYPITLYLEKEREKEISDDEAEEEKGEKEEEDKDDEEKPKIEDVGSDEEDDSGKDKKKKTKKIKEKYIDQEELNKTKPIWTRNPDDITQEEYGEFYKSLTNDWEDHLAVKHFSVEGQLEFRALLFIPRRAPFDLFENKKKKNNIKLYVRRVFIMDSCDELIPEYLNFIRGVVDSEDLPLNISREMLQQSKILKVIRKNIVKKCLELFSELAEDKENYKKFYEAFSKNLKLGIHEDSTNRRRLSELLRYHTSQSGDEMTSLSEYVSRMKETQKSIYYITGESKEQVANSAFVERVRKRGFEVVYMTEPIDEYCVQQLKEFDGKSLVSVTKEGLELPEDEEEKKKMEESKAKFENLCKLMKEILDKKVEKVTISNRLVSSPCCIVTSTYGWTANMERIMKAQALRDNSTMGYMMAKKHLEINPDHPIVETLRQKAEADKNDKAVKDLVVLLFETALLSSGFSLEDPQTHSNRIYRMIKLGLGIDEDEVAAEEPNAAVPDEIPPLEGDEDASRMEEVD
UniProt Q14790: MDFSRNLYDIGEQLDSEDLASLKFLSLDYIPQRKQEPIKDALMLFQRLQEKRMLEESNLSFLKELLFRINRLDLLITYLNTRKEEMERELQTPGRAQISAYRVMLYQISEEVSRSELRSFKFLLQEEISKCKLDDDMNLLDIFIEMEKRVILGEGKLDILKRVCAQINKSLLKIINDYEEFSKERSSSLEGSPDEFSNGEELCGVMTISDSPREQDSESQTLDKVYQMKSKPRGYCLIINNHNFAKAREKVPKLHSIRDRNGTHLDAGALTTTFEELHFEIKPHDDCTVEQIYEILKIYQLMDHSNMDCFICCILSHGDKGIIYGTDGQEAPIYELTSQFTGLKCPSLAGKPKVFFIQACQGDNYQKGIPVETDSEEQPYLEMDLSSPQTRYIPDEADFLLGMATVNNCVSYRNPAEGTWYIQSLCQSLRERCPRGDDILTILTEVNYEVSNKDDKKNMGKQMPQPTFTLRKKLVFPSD
UniProt Q13546: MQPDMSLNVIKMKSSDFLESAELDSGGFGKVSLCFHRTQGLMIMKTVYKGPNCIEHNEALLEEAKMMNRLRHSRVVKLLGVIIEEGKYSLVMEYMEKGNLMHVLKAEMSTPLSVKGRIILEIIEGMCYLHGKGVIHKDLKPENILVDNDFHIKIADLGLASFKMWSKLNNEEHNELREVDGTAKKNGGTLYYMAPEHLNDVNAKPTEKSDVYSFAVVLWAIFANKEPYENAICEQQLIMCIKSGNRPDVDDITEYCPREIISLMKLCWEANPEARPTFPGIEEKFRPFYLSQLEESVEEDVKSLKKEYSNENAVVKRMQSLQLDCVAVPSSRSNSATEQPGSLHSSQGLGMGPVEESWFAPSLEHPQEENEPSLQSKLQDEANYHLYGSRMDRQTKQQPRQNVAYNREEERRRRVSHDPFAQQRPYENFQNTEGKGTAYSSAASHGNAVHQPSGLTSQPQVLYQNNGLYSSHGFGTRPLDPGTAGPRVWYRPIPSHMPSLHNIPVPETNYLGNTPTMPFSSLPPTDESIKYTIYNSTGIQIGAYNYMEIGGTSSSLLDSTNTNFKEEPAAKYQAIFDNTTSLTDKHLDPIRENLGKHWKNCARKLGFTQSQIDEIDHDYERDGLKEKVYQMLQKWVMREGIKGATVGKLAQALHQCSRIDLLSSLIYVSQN

target: receptor-interacting serine/threonine-protein kinase 3 (human (endogenous in HT29)) (UniProt Q9Y572); test: affinity purification with mass spectrometry; pools of eight anti-RIPK3 immunoprecipitates from HT29 cells at 0 and 3 h of TzB treatment, trypsin digestion, LC-MS/MS (LTQ-OrbiTrap XL), spectral count label-free quantification, duplicate; IgG control

| Substance | binding |
| --- | --- |
| Fas-associated with death domain protein (from UniProt Q13158 1-208) | binds |
| tripartite motif containing 21 (from UniProt P19474 1-475) | binds |
| Heat shock protein 90-beta (from UniProt P08238 1-724) | binds |
| caspase-8 (from UniProt Q14790 1-479) (enzyme) | binds |
| receptor-interacting serine/threonine-protein kinase 1 (from UniProt Q13546 1-671) | binds |

No constants are given. Whether binding was seen depends on the method and setting. Binding seen in cells or lysates may run through a third protein. Here binding means that the protein was enriched with, or labelled near, the bait; the list need not be complete.
